Results reported in patent publication US20210228523A1, “MODULATORS OF SESTRIN-GATOR2 INTERACTION AND USES THEREOF” (Navitor Pharmaceuticals, Inc., priority 2017, published 2021).

Tested on: Male Sprague Dawley rats
Experiment: Novelty Suppressed Feeding Test (NSFT) with home cage feeding control
Format: in vivo, rat
Conditions: for home cage food consumption: Example G, day 10
Method: Behavioral Analysis Using the Novelty Suppressed Feeding Test (NSFT): The NSFT was conducted as previously described (Warner-Schmidt, J. L. & Duman, R. S. PNAS 104(11): 4647-52 (2007)). Rats were fasted in their home cages for 20 hr and then placed in a Plexiglas open field (76.5 cm×76.5 cm×40 cm) with a small amount of food in the center. Animals were allowed to explore the open field for 8 min and the latency to feed (s) was recorded.
Chronic Unpredictable Stress (CUS) Conditions: Rats were exposed to a variable sequence of 12 unpredictable stressors, preventing habituation as described (Li, N. et al., Biol Psychiatry 69(8): 754-61 (2011)). The following twelve stressors were applied (2 per day, for 25 days): cage rotation, light on, light off, cold stress, isolation, swim stress, food and water deprivation, wet bedding, stroboscope, cage tilt, odor exposure and group housing. The animals in non-stressed (NS) groups were housed normally without the application of external stressors. Both NS and CUS rats were handled and weighed weekly.
Study Design. Thirty-two (32) male Sprague Dawley Male rats weighing between 175 and 200 g were randomized into 4 study groups (n=8/treatment group), following a 5-day acclimation period. On study day 0, rats received a single dose of either saline (Sal) or ketamine (Ket) in Groups 1 and 2, respectively, by intraperitoneal injection (i.p.). […] On day 2, 48 hrs after dosing, the LMA of all rats was measured in an open field. […]
Study Design: Fifty-six (56) male rats weighing between 175 and 200 g were randomized into 4 study groups (n=14/group), following a 5-day acclimation period. […] Crude synaptosomes were prepared from the PFC and the synaptic proteins, GluR1 and PSD95 were quantitated by WB.
Study Design. […] Each treatment group was assessed at the designated time following oral dosing in FST 24 hrs (day 1) LMA 48 hrs (day 2) and the NSFT 72 hrs (day 3 following a 20 hr period of fasting). LMA was measured to rule out overall changes in generally locomotor activity. […]

SMILES	home cage food consumption (Ket 10 mg/kg i.p. single dose)	home cage feeding (overall food consumption) (Example F, NV-5138 160 mg/kg oral, immediately following the NSFT)	home cage food consumption (NV-5138 160 mg/kg oral single dose)
CNC1(c2ccccc2Cl)CCCCC1=O (stereo not drawn) [Ket, ketamine, reference compound]	no difference		
CC(C)(C[C@H](N)C(=O)O)C(F)F [NV-5138]		No significant differences	no difference
